The list shows a part of the results.
Legend:
Assay in all cases: glycan array binding signal (z-score within array); higher = stronger binding
Settings in all cases: glycan notation: IUPAC condensed, linker removed
[1] = biological target: Man(a1-3)[Man(a1-6)]Man(a1-6)[Man(a1-2)Man(a1-3)]Man(b1-4)GlcNAc(b1-4)GlcNAc
In short: (§1)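 The Consortium for Functional Glycomics database supplied 3228 glycan arrays, of which those lacking an available protein sequence were dropped. The binding signal, a within-array Z-score, was averaged across arrays of the same protein sequence and across linkers. Negative scores can be read as non-binding.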

[2] = biological target: Man(a1-3)[Man(a1-6)]Man(a1-6)[Man(a1-3)]Man
In short: as §1

[3] = biological target: Man(a1-3)[Man(a1-6)]Man(a1-6)[Man(a1-3)]Man(b1-4)GlcNAc(b1-4)GlcNAc
In short: as §1

[4] = biological target: Man(a1-3)[Man(a1-6)]Man(b1-4)GlcNAc(b1-4)GlcNAc
In short: as §1

[5] = biological target: Man(a1-3)[Man(a1-6)]Man(b1-4)GlcNAc(b1-4)[Fuc(a1-6)]GlcNAc
In short: as §1

Man(a1-6)Man = biological target: Man(a1-6)Man
In short: as §1

Man(b1-4)GlcNAc = biological target: Man(b1-4)GlcNAc
In short: as §1

MurNAc(b1-4)GlcNAc = biological target: MurNAc(b1-4)GlcNAc
In short: as §1

Neu5Ac(a2-3)Gal = biological target: Neu5Ac(a2-3)Gal
In short: as §1

[6] = biological target: Neu5Ac(a2-3)Gal(b1-3)GalNAc
In short: as §1

[7] = biological target: Neu5Ac(a2-3)Gal(b1-3)GalNAc(b1-3)Gal(a1-4)Gal(b1-4)Glc
In short: as §1

[8] = biological target: Neu5Ac(a2-3)Gal(b1-3)GalNAc(b1-4)[Neu5Ac(a2-3)]Gal(b1-4)Glc
In short: as §1

[9] = biological target: Neu5Ac(a2-3)Gal(b1-3)GalNAc(b1-4)[Neu5Ac(a2-8)Neu5Ac(a2-3)]Gal(b1-4)Glc
In short: as §1

[10] = biological target: Neu5Ac(a2-3)Gal(b1-3)GalNAc6S
In short: as §1

[11] = biological target: Neu5Ac(a2-3)Gal(b1-3)GlcNAc
In short: as §1

[12] = biological target: Neu5Ac(a2-3)Gal(b1-3)GlcNAc(b1-2)Man
In short: as §1

[13] = biological target: Neu5Ac(a2-3)Gal(b1-3)GlcNAc(b1-2)Man(a1-3)[GlcNAc(b1-4)][Neu5Ac(a2-3)Gal(b1-3)GlcNAc(b1-2)Man(a1-6)]Man(b1-4)GlcNAc(b1-4)GlcNAc
In short: as §1

[14] = biological target: Neu5Ac(a2-3)Gal(b1-3)GlcNAc(b1-2)Man(a1-3)[Neu5Ac(a2-3)Gal(b1-3)GlcNAc(b1-2)Man(a1-6)]Man(b1-4)GlcNAc(b1-4)GlcNAc
In short: as §1

[15] = biological target: Neu5Ac(a2-3)Gal(b1-3)GlcNAc(b1-3)Gal(b1-3)GlcNAc
In short: as §1

[16] = biological target: Neu5Ac(a2-3)Gal(b1-3)GlcNAc(b1-3)Gal(b1-4)GlcNAc
In short: as §1

[17] = biological target: Neu5Ac(a2-3)Gal(b1-3)GlcNAc(b1-3)GalNAc
In short: as §1

[18] = biological target: Neu5Ac(a2-3)Gal(b1-3)GlcNAc(b1-4)Gal(b1-4)Glc
In short: as §1

[19] = biological target: Neu5Ac(a2-3)Gal(b1-3)GlcNAc(b1-6)GalNAc
In short: as §1

[20] = biological target: Neu5Ac(a2-3)Gal(b1-3)GlcNAc6S
In short: as §1

[21] = biological target: Neu5Ac(a2-3)Gal(b1-3)[Fuc(a1-4)]GlcNAc
In short: as §1

[22] = biological target: Neu5Ac(a2-3)Gal(b1-3)[Fuc(a1-4)]GlcNAc(b1-3)Gal(b1-3)[Fuc(a1-4)]GlcNAc
In short: as §1

[23] = biological target: Neu5Ac(a2-3)Gal(b1-3)[Fuc(a1-4)]GlcNAc(b1-3)Gal(b1-4)[Fuc(a1-3)]GlcNAc
In short: as §1

[24] = biological target: Neu5Ac(a2-3)Gal(b1-3)[GlcNAc(b1-6)]GalNAc
In short: as §1

[25] = biological target: Neu5Ac(a2-3)Gal(b1-3)[Neu5Ac(a2-6)]GalNAc
In short: as §1

[26] = biological target: Neu5Ac(a2-3)Gal(b1-3)[Neu5Ac(a2-6)]GlcNAc(b1-3)[Fuc(a1-3)[Gal(b1-4)]GlcNAc(b1-6)]Gal(b1-4)Glc
In short: as §1

[27] = biological target: Neu5Ac(a2-3)Gal(b1-3)]Neu5Ac(a2-3)Gal(b1-4)]GlcNAc
In short: as §1

Neu5Ac(a2-3)Gal(b1-4)Glc = biological target: Neu5Ac(a2-3)Gal(b1-4)Glc
In short: as §1

[28] = biological target: Neu5Ac(a2-3)Gal(b1-4)GlcNAc
In short: as §1

[29] = biological target: Neu5Ac(a2-3)Gal(b1-4)GlcNAc(b1-2)Man
In short: as §1

[30] = biological target: Neu5Ac(a2-3)Gal(b1-4)GlcNAc(b1-2)Man(a1-3)[GlcNAc(b1-4)][Neu5Ac(a2-3)Gal(b1-4)GlcNAc(b1-2)Man(a1-6)]Man(b1-4)GlcNAc(b1-4)GlcNAc
In short: as §1

[31] = biological target: Neu5Ac(a2-3)Gal(b1-4)GlcNAc(b1-2)Man(a1-3)[Neu5Ac(a2-3)Gal(b1-4)GlcNAc(b1-2)Man(a1-6)]Man(b1-4)GlcNAc(b1-4)GlcNAc
In short: as §1

[32] = biological target: Neu5Ac(a2-3)Gal(b1-4)GlcNAc(b1-2)Man(a1-3)[Neu5Ac(a2-3)Gal(b1-4)GlcNAc(b1-2)Man(a1-6)]Man(b1-4)GlcNAc(b1-4)[Fuc(a1-6)]GlcNAc
In short: as §1

[33] = biological target: Neu5Ac(a2-3)Gal(b1-4)GlcNAc(b1-2)Man(a1-3)[Neu5Ac(a2-6)Gal(b1-4)GlcNAc(b1-2)Man(a1-6)]Man(b1-4)GlcNAc(b1-4)GlcNAc
In short: as §1

B1: AT5G24760(45) (Arabidopsis thaliana), Q8LEB2 (protein)
chain: MSASSSSFEQPQVITCNAAVAWRAGEPLVMEEVEVSPPQPLEIRIKVVCTSLCRSDLSAWESQSLLPRIFGHEAAGIVESIGEGVTEFEKGDHVLAVFTGECGSCRHCISGKSNMCQVLGMERKGLMHSDQKTRFSIKGKPVYHYCAVSSFSEYTVVHSGCAVKVDPLAPLHKICLLSCGVAAGLGAAWNVADVQKGSSVVIFGLGTVGLSVAQGAKLRGAAQILGVDINPAKAEQAKTFGVTDFINSNDLSEPIPQVIKRMTGGGADFSFECVGDTGIATTALQSCSDGWGMTVTLGVPKAKPEVSAHYGLFLSGKSLKGTLFGGWKPKSDLPSLIDKYMNKEIMIDEFITHNLSFDEINKAFVLMREGKCLRCVLHMPK
For B1, which “glycan array binding signal (z-score)” value [1] is on record?
The value was -0.032.

What about the “glycan array binding signal (z-score)” value [2] of the same binder?
The value was 0.506.

And the “glycan array binding signal (z-score)” value [3]?
Its value is 2.45.

What about the “glycan array binding signal (z-score)” value [4] of the same binder?
Its value is -0.591.

What about the “glycan array binding signal (z-score)” value [5] of the same binder?
Its value is -0.202.

And the “glycan array binding signal (z-score)” value (Man(a1-6)Man)?
Its value is 0.972.

What about the “glycan array binding signal (z-score)” value (Man(b1-4)GlcNAc) of the same binder?
The value was -0.703.

And the “glycan array binding signal (z-score)” value (MurNAc(b1-4)GlcNAc)?
The value was -0.721.

And the “glycan array binding signal (z-score)” value (Neu5Ac(a2-3)Gal)?
The value was -0.061.

What about the “glycan array binding signal (z-score)” value [6] of the same binder?
Its value is -0.172.

What about the “glycan array binding signal (z-score)” value [7] of the same binder?
Its value is -0.984.

What about the “glycan array binding signal (z-score)” value [8] of the same binder?
The value was -0.768.

And the “glycan array binding signal (z-score)” value [9]?
Its value is -0.322.

And the “glycan array binding signal (z-score)” value [10]?
The value was -0.551.

What about the “glycan array binding signal (z-score)” value [11] of the same binder?
Its value is -0.399.

What about the “glycan array binding signal (z-score)” value [12] of the same binder?
The value was -0.186.

And the “glycan array binding signal (z-score)” value [13]?
The value was 2.23.

And the “glycan array binding signal (z-score)” value [14]?
The value was -0.816.

What about the “glycan array binding signal (z-score)” value [15] of the same binder?
Its value is 0.213.

And the “glycan array binding signal (z-score)” value [16]?
The value was -0.618.

What about the “glycan array binding signal (z-score)” value [17] of the same binder?
The value was -0.553.

And the “glycan array binding signal (z-score)” value [18]?
Its value is -1.04.

And the “glycan array binding signal (z-score)” value [19]?
The value was -0.602.

What about the “glycan array binding signal (z-score)” value [20] of the same binder?
The value was -0.604.

What about the “glycan array binding signal (z-score)” value [21] of the same binder?
The value was -0.34.

And the “glycan array binding signal (z-score)” value [22]?
Its value is -0.571.

And the “glycan array binding signal (z-score)” value [23]?
Its value is -0.859.

And the “glycan array binding signal (z-score)” value [24]?
The value was -0.437.

And the “glycan array binding signal (z-score)” value [25]?
The value was -1.03.

And the “glycan array binding signal (z-score)” value [26]?
Its value is -0.703.

And the “glycan array binding signal (z-score)” value [27]?
The value was -0.892.

And the “glycan array binding signal (z-score)” value (Neu5Ac(a2-3)Gal(b1-4)Glc)?
The value was -0.264.

And the “glycan array binding signal (z-score)” value [28]?
Its value is -0.409.

And the “glycan array binding signal (z-score)” value [29]?
The value was -0.578.

What about the “glycan array binding signal (z-score)” value [30] of the same binder?
The value was -0.597.

And the “glycan array binding signal (z-score)” value [31]?
Its value is -1.3.

And the “glycan array binding signal (z-score)” value [32]?
Its value is -0.717.

And the “glycan array binding signal (z-score)” value [33]?
The value was -1.3.

— the supplement of paper PMC8728848
